In paper PMC5482063 one finds binding data, which are given here for 2 substances.

By UniProt entry, the sequences of proteins in these tests, tags left out.
UniProt Q96524: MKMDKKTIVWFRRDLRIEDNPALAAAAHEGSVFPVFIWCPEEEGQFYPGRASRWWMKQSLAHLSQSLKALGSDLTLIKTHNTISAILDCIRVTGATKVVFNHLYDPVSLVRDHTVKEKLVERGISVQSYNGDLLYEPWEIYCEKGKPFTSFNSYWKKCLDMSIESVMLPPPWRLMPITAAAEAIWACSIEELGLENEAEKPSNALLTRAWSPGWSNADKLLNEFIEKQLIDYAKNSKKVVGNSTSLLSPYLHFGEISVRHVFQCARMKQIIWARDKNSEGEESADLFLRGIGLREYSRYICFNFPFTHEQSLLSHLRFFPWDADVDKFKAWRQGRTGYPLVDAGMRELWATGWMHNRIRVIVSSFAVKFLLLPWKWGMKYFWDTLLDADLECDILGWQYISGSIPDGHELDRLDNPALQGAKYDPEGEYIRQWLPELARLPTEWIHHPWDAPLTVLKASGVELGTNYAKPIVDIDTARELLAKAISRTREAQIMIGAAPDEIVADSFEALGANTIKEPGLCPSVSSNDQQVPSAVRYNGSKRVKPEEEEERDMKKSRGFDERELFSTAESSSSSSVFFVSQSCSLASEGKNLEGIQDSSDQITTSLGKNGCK
UniProt Q9NZN5: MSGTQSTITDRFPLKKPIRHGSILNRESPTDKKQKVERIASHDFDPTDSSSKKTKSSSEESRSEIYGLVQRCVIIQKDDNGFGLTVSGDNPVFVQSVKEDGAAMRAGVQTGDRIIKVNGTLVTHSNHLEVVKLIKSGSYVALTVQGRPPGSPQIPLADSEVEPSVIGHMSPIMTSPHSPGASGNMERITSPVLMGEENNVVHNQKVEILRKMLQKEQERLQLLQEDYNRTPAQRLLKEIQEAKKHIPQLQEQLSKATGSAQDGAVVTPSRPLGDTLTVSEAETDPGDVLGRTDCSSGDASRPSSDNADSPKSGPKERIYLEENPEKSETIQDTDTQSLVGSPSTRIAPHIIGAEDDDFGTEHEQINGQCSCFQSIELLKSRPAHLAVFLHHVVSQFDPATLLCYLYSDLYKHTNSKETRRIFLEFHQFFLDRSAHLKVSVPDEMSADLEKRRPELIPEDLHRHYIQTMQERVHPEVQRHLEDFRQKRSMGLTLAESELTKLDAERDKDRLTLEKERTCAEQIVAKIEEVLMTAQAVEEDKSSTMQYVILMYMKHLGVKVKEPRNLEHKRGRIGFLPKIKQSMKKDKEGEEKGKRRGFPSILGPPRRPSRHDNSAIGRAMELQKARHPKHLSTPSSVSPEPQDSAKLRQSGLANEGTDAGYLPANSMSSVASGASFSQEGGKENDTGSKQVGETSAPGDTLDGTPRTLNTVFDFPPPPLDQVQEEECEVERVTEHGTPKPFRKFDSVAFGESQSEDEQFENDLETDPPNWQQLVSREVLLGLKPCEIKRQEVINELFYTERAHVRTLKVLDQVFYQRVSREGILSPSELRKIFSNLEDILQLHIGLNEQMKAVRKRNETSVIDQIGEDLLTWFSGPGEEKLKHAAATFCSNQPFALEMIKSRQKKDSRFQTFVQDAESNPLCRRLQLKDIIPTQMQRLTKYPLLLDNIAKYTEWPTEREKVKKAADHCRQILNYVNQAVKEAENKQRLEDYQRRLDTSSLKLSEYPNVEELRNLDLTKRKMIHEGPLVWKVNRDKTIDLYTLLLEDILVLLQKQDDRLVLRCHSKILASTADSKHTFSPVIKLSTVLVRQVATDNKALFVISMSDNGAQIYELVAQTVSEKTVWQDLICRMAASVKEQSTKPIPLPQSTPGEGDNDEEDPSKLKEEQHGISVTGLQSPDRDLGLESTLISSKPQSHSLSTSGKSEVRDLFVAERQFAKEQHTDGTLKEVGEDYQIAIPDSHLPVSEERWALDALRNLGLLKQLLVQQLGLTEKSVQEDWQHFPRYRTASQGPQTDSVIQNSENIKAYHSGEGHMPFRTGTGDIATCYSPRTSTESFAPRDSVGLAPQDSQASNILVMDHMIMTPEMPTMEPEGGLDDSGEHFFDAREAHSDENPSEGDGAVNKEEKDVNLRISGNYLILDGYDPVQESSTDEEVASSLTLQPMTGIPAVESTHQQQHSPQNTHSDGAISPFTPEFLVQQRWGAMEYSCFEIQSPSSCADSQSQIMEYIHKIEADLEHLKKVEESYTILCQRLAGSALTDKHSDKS
UniProt O15085: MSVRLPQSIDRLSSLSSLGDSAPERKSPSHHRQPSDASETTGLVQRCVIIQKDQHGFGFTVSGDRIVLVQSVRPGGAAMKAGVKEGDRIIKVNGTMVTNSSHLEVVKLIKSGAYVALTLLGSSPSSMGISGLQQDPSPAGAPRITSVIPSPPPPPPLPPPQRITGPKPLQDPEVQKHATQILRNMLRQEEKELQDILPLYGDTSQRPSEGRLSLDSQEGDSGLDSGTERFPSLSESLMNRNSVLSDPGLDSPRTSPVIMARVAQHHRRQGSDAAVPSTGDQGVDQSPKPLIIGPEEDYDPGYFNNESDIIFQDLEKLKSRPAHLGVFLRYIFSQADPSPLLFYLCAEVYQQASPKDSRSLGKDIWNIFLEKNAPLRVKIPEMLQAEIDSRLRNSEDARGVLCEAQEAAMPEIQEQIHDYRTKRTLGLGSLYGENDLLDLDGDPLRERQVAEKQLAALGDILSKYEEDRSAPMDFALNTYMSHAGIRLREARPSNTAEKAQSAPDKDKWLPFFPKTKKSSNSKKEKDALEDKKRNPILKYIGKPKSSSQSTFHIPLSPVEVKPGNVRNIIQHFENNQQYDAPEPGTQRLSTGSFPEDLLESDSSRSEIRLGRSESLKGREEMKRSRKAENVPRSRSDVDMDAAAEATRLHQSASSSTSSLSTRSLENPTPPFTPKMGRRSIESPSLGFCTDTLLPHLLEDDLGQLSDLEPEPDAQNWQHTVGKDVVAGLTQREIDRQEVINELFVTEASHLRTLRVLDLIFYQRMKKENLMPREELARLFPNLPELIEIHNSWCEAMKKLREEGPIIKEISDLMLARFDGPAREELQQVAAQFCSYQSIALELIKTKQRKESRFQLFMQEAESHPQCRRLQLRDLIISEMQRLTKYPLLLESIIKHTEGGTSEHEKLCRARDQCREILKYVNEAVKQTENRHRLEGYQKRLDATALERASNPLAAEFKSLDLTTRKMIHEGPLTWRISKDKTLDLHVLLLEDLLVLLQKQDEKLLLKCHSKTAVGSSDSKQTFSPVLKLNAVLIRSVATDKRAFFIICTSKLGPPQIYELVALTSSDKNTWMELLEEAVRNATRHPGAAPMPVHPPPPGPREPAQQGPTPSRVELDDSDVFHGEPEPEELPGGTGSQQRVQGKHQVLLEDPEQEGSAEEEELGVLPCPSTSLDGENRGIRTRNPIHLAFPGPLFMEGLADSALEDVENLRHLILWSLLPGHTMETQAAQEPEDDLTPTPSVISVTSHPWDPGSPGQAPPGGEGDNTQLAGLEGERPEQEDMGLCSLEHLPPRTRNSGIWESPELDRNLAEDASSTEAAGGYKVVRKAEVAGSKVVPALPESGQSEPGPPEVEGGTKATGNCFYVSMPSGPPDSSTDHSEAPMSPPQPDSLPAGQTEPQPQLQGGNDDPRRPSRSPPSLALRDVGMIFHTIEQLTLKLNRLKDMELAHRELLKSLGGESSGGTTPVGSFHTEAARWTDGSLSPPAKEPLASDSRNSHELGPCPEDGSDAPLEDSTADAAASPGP

These are yes or no findings as the source states them, for the method shown.

The experiment addresses Cry2 alone (mCherry-tagged Cryptochrome-2) (UniProt Q96524). The experiment can be described thus: membrane co-recruitment assay (TIRF microscopy); living COS-7 cells co-expressing mVenus-RhoGEF, the mCherry-tagged Cry2 construct and CIB-CAAX; whole-cell blue light; increase of the RhoGEF's fluorescence relative to that of optoPlexin (relative co-recruitment); only cells with at least 30% increase in optoPlexin signal; also with Erlotinib.

With “mVenus-Leukemia-associated RhoGEF (mVenus-LARG) (from UniProt Q9NZN5 1-1544)”, the binding result is on record as “no binding”.

In the case of “mVenus-PDZ-RhoGEF (mVenus-PRG) (from UniProt O15085 1-1522)”, the binding result is “no binding”.
